# According to the supplement of paper PMC10331698:
# ± gives the standard deviation of the averaged measurements. Most entries show no effect beyond the scatter of the controls.
# Legend:
# Assay in all cases: level (log10 ratio to DMSO vehicle control); higher = higher biomarker level / cell amount than vehicle control
# [1] = compound: C=CC(=O)OCC(F)(F)C(F)(F)C(F)(F)C(F)(F)C(F)(F)C(F)(F)C(F)(F)C(F)F [1H,1H,9H-Perfluorononyl acrylate]; settings: 2200 nM; in DMSO
# Experimental: (§1)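 BioMAP Diversity Plus panel of 12 human primary cell co-culture systems (3C, 4H, LPS, SAg, BT, BF4T, BE3C, CASM3C, HDF3CGF, KF3CT, MyoF, Mphg). Compounds were added 1 h before stimulation and left for 24 h (MyoF 48 h; BT 72 h for soluble read-outs or 6 d for IgG). Biomarkers were read by ELISA, cytotoxicity by SRB, PBMC viability and proliferation by Alamar Blue. Each well value was divided by the mean of 8 DMSO control wells on the same plate and log10 transformed; duplicate blinded samples were tested at 4 concentrations.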
# [2] = compound: OCC(F)(F)OC(F)(F)C(F)(F)OC(F)(F)C(F)(F)OC(F)(F)CO [1H,1H,11H,11H-Perfluorotetraethylene glycol]; settings: 2200 nM; in DMSO
# Experimental: as §1
# [3] = compound: CCOC(=O)CC(=O)C(F)(F)C(F)(F)F [Ethyl pentafluoropropionyl acetate]; settings: 2200 nM; in DMSO
# Experimental: as §1
# [4] = compound: OCC(F)(F)C(F)(F)C(F)(F)C(F)(F)C(F)(F)C(F)(F)C(F)(F)C(F)(F)CO [1H,1H,10H,10H-Perfluorodecane-1,10-diol]; settings: 2200 nM; in DMSO
# Experimental: as §1
# [5] = compound: O=C(O)C(F)(F)C(F)(F)C(F)(F)C(F)(F)C(F)(F)C(F)(F)C(F)(F)F [Ammonium perfluorooctanoate]; settings: 2200 nM; in DMSO
# Experimental: as §1
# [6] = compound: O=C(CC(=O)C(F)(F)C(F)(F)C(F)(F)F)c1cccs1 [(Perfluorobutyryl)-2-thenoylmethane]; settings: 2200 nM; in DMSO
# Experimental: as §1
# [7] = compound: O=C(O)C(F)(F)OC(F)(F)C(F)(F)OC(F)(F)C(F)(F)OC(F)(F)C(F)(F)C(F)(F)C(F)(F)F [Perfluoro-3,6,9-trioxatridecanoic acid]; settings: 2200 nM; in DMSO
# Experimental: as §1
# [8] = compound: O=C(O)CCC(F)(C(F)(F)F)C(F)(F)F [4,4-bis(Trifluoromethyl)-4-fluoropropanoic acid]; settings: 2200 nM; in DMSO
# Experimental: as §1
# Perfluorooctanoic acid = compound: O=C(O)C(F)(F)C(F)(F)C(F)(F)C(F)(F)C(F)(F)C(F)(F)C(F)(F)F [Perfluorooctanoic acid]; settings: 2200 nM; in DMSO
# Experimental: as §1
# Perfluorononanoic acid = compound: O=C(O)C(F)(F)C(F)(F)C(F)(F)C(F)(F)C(F)(F)C(F)(F)C(F)(F)C(F)(F)F [Perfluorononanoic acid]; settings: 2200 nM; in DMSO
# Experimental: as §1
# Perfluorodecanoic acid = compound: O=C(O)C(F)(F)C(F)(F)C(F)(F)C(F)(F)C(F)(F)C(F)(F)C(F)(F)C(F)(F)C(F)(F)F [Perfluorodecanoic acid]; settings: in DMSO
# Experimental: as §1
# Perfluorooctanamidine = compound: N=C(N)C(F)(F)C(F)(F)C(F)(F)C(F)(F)C(F)(F)C(F)(F)C(F)(F)F [Perfluorooctanamidine]; settings: in DMSO
# Experimental: as §1
# [9] = compound: FC(F)(F)C(F)(F)C(F)(F)C(F)(F)C(F)(F)C(F)(F)C(F)(F)C(F)(F)CCS [2-(Perfluorooctyl)ethanthiol]; settings: in DMSO
# Experimental: as §1
# [10] = compound: O=C(O)C(F)(F)OC(F)(F)C(F)(F)OC(F)(F)F [Perfluoro-3,6-dioxaheptanoic acid]; settings: 2200 nM; in DMSO
# Experimental: as §1
Test System,level (log10) [1],level (log10) [2],level (log10) [3],level (log10) [4],level (log10) [5],level (log10) [6],level (log10) [7],level (log10) [8],level (log10) (Perfluorooctanoic acid),level (log10) (Perfluorononanoic acid),level (log10) (Perfluorodecanoic acid; 2200 nM),level (log10) (Perfluorodecanoic acid; 6700 nM),level (log10) (Perfluorodecanoic acid; 20000 nM),level (log10) (Perfluorooctanamidine; 2200 nM),level (log10) (Perfluorooctanamidine; 6700 nM),level (log10) (Perfluorooctanamidine; 20000 nM),level (log10) (Perfluorooctanamidine; 60000 nM),level (log10) ([9]; 740 nM),level (log10) ([9]; 2200 nM),level (log10) [10]
BF4T:CD54/ICAM-1,-0.0195 ± 0.013,-0.0035 ± 0.019,-0.006 ± 0.017,-0.012 ± 0.031,-0.006 ± 0.0042,0.0005 ± 0.005,-0.017 ± 0.0042,0.0155 ± 0.013,0.009 ± 0.011,-0.006 ± 0.031,-0.001 ± 0.0042,-0.0305 ± 0.0064,-0.181 ± 0.011,0.009 ± 0.0099,-0.001 ± 0.0085,-0.006 ± 0.017,0.039,0.0095 ± 0.0092,0.0045 ± 0.005,-0.006 ± 0.0042
BF4T:CCL2/MCP-1,0.0095 ± 0.005,-0.011 ± 0.013,-0.001 ± 0.037,0.011 ± 0.038,0.021 ± 0.018,-0.032 ± 0.03,0.0175 ± 0.023,0.023 ± 0.0014,0.004 ± 0.031,-0.012 ± 0.037,0.023 ± 0.031,-0.043 ± 0.03,-0.484 ± 0.11,0.032 ± 0.041,0.031 ± 0.0099,0.025 ± 0.045,0.06,-0.0115 ± 0.019,0.0025 ± 0.026,-0.033 ± 0.02
HDF3CGF:Collagen I,-0.0225 ± 0.07,0.027 ± 0.079,0.0035 ± 0.011,0.012 ± 0.014,0.0455 ± 0.029,0.0095 ± 0.088,0.034 ± 0.12,0.0135 ± 0.074,-0.0075 ± 0.033,-0.016 ± 0.062,0.046 ± 0.024,-0.02 ± 0.025,-0.0095 ± 0.04,0.0345 ± 0.042,-0.015 ± 0.0085,-0.025 ± 0.03,-0.021,0.0175 ± 0.012,-0.027 ± 0.03,0.018 ± 0.017
LPS:CD62E/E-Selectin,-0.0115 ± 0.0064,0.013 ± 0.054,0.022 ± 0.059,-0.065 ± 0.072,-0.004 ± 0.0085,-0.0405 ± 0.033,-0.0105 ± 0.0021,0.008 ± 0.0057,0.0105 ± 0.019,-0.0075 ± 0.012,-0.0245 ± 0.00071,-0.0115 ± 0.00071,-0.0205 ± 0.015,0.0055 ± 0.0092,0.0135 ± 0.00071,-0.009 ± 0.013,0.019,-0.001 ± 0.02,0.0075 ± 0.036,-0.0035 ± 0.018
BT:Secreted IgG,0.017 ± 0.042,0.03 ± 0.04,0.0155 ± 0.016,0.0005 ± 0.093,0.0385 ± 0.0078,-0.022 ± 0.024,-0.0185 ± 0.028,-0.0335 ± 0.054,0.0265 ± 0.0092,0.0305 ± 0.016,-0.012 ± 0.041,-0.014 ± 0.033,-0.018 ± 0.02,0.0005 ± 0.012,0.0115 ± 0.039,-0.042 ± 0.0042,-0.034,0.019 ± 0.0099,0.0235 ± 0.012,-0.001 ± 0.047
3C:CD142/Tissue Factor,0 ± 0.047,-0.012 ± 0.092,0.0115 ± 0.013,-0.0315 ± 0.013,0.011 ± 0.011,0.0025 ± 0.016,0.0065 ± 0.044,-0.013 ± 0.013,0.053 ± 0.028,-0.012 ± 0.04,-0.013 ± 0.023,-0.013 ± 0.013,-0.029 ± 0.0042,-0.0345 ± 0.0064,-0.02 ± 0.018,-0.0105 ± 0.012,-0.014,-0.084 ± 0.069,-0.055 ± 0.031,-0.018 ± 0.048
HDF3CGF:Proliferation 72hr,-0.0775 ± 0.053,-0.075 ± 0.095,-0.0505 ± 0.1,-0.0345 ± 0.04,-0.0245 ± 0.037,-0.0715 ± 0.029,0.0985 ± 0.052,-0.064,0.0225 ± 0.0064,0.0685 ± 0.05,0.09 ± 0.0085,0.115 ± 0.025,-0.934 ± 0.037,-0.0655 ± 0.052,-0.0255 ± 0.043,-0.0515 ± 0.1,-0.564,-0.014 ± 0.0014,0.0005 ± 0.00071,-0.0215 ± 0.029
lMphg:CD40,-0.0235 ± 0.0021,-0.014 ± 0.03,0.009 ± 0.014,0.0135 ± 0.012,0.028 ± 0.052,0.0215 ± 0.012,0.0085 ± 0.0035,-0.004 ± 0.014,-0.004 ± 0.0057,-0.002 ± 0.02,0.005 ± 0.0014,-0.0025 ± 0.039,-0.0385 ± 0.05,-0.0125 ± 0.029,-0.016 ± 0.023,-0.0145 ± 0.005,-0.046,0.0265 ± 0.005,0.0155 ± 0.044,-0.0045 ± 0.0035
CASM3C:CD87/uPAR,0.0345 ± 0.022,-0.014 ± 0.0085,-0.0265 ± 0.022,0.005 ± 0.0099,0.0255 ± 0.023,-0.0285 ± 0.046,-0.0055 ± 0.021,0.008 ± 0.02,-0.041 ± 0.054,0.0055 ± 0.0078,0.005 ± 0.013,-0.0055 ± 0.005,0.016 ± 0.011,-0.012 ± 0.017,-0.011 ± 0.016,-0.02 ± 0.037,-0.034,-0.034 ± 0.048,-0.0445 ± 0.061,0.0025 ± 0.0021
CASM3C:LDLR,0.0205 ± 0.005,0.002 ± 0.025,0.006 ± 0.018,0.031 ± 0.034,0.004 ± 0.0085,-0.0115 ± 0.023,-0.021 ± 0.0099,-0.003 ± 0.0014,-0.0145 ± 0.016,-0.111 ± 0.094,0.0075 ± 0.025,-0.0045 ± 0.0078,0.0105 ± 0.03,0.0455 ± 0.047,0.012 ± 0.013,0.036 ± 0.0085,0.108,-0.001 ± 0.068,-0.035 ± 0.062,-0.046 ± 0.044
CASM3C:CD142/Tissue Factor,0.028 ± 0.076,-0.0215 ± 0.015,-0.041 ± 0.014,-0.005 ± 0.041,-0.003 ± 0.014,-0.0385 ± 0.064,0.022 ± 0.018,-0.0145 ± 0.061,-0.0245 ± 0.025,-0.065 ± 0.024,0.0145 ± 0.0078,0.008 ± 0.0042,-0.0055 ± 0.012,0.002 ± 0.078,-0.022 ± 0.024,-0.033 ± 0.0014,0.042,-0.0675 ± 0.1,-0.0755 ± 0.071,0.0165 ± 0.012
MyoF:PAI-I,-0.0105 ± 0.033,-0.003 ± 0.016,0.003 ± 0.038,0.0045 ± 0.011,0.0015 ± 0.0064,-0.003 ± 0.0085,-0.0035 ± 0.021,-0.005 ± 0.013,0.001 ± 0.0085,-0.022 ± 0.02,0.0005 ± 0.025,0.0035 ± 0.012,0.0205 ± 0.025,0.001 ± 0.0028,0.0015 ± 0.0064,-0.0075 ± 0.013,0.021,0.0065 ± 0.00071,0.0015 ± 0.00071,-0.027 ± 0.035

# 3 successive entries already listed, quoted:
Test System,level (log10) [1],level (log10) [2],level (log10) [3],level (log10) [4],level (log10) [5],level (log10) [6],level (log10) [7],level (log10) [8],level (log10) (Perfluorooctanoic acid),level (log10) (Perfluorononanoic acid),level (log10) (Perfluorodecanoic acid; 2200 nM),level (log10) (Perfluorodecanoic acid; 6700 nM),level (log10) (Perfluorodecanoic acid; 20000 nM),level (log10) (Perfluorooctanamidine; 2200 nM),level (log10) (Perfluorooctanamidine; 6700 nM),level (log10) (Perfluorooctanamidine; 20000 nM),level (log10) (Perfluorooctanamidine; 60000 nM),level (log10) ([9]; 740 nM),level (log10) ([9]; 2200 nM),level (log10) [10]
3C:CD142/Tissue Factor,0 ± 0.047,-0.012 ± 0.092,0.0115 ± 0.013,-0.0315 ± 0.013,0.011 ± 0.011,0.0025 ± 0.016,0.0065 ± 0.044,-0.013 ± 0.013,0.053 ± 0.028,-0.012 ± 0.04,-0.013 ± 0.023,-0.013 ± 0.013,-0.029 ± 0.0042,-0.0345 ± 0.0064,-0.02 ± 0.018,-0.0105 ± 0.012,-0.014,-0.084 ± 0.069,-0.055 ± 0.031,-0.018 ± 0.048
HDF3CGF:Proliferation 72hr,-0.0775 ± 0.053,-0.075 ± 0.095,-0.0505 ± 0.1,-0.0345 ± 0.04,-0.0245 ± 0.037,-0.0715 ± 0.029,0.0985 ± 0.052,-0.064,0.0225 ± 0.0064,0.0685 ± 0.05,0.09 ± 0.0085,0.115 ± 0.025,-0.934 ± 0.037,-0.0655 ± 0.052,-0.0255 ± 0.043,-0.0515 ± 0.1,-0.564,-0.014 ± 0.0014,0.0005 ± 0.00071,-0.0215 ± 0.029
lMphg:CD40,-0.0235 ± 0.0021,-0.014 ± 0.03,0.009 ± 0.014,0.0135 ± 0.012,0.028 ± 0.052,0.0215 ± 0.012,0.0085 ± 0.0035,-0.004 ± 0.014,-0.004 ± 0.0057,-0.002 ± 0.02,0.005 ± 0.0014,-0.0025 ± 0.039,-0.0385 ± 0.05,-0.0125 ± 0.029,-0.016 ± 0.023,-0.0145 ± 0.005,-0.046,0.0265 ± 0.005,0.0155 ± 0.044,-0.0045 ± 0.0035
